Changes are numbered by the printed parent chain. Results are given in words; binding and its absence hold for the method and conditions named. Some entries that bind do so weakly or less than the wild type.

This passage reports binding results from article PMC10981675, “Structural basis for phage-mediated activation and repression of bacterial DSR2 anti-phage defense system” (Nature Communications, 2024).

The target in test [1] is T1, DSR2 N133A (Bacillus subtilis) (UniProt P0DXN8).
T1 sequence: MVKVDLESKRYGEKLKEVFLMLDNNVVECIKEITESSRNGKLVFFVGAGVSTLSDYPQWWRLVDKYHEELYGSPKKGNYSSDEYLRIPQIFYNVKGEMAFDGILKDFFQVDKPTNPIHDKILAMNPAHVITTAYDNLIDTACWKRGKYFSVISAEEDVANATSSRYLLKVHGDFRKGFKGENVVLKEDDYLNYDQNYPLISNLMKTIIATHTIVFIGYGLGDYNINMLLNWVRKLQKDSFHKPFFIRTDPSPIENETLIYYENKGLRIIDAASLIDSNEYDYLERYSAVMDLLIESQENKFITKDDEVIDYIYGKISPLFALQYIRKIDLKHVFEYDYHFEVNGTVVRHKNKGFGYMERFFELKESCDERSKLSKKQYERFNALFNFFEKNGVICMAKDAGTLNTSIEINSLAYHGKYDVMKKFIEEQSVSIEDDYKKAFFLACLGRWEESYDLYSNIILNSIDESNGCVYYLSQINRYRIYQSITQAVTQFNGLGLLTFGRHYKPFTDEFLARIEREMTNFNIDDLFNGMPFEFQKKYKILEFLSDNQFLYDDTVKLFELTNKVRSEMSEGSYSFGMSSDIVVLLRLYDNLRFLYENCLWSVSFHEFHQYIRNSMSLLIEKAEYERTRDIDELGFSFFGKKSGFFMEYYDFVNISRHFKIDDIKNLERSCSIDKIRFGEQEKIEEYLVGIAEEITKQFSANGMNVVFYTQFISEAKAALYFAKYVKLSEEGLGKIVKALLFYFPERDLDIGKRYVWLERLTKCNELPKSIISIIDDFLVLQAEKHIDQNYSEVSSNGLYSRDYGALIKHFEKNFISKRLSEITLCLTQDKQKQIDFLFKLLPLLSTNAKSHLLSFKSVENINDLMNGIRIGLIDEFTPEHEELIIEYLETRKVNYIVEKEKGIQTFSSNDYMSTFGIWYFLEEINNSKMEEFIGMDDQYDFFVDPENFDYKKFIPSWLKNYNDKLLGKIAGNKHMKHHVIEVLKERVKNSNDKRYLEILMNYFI
Put plainly: tandem affinity co-purification + SEC; His-DSR2 and GST-tube made in E. coli; for wild type the cells expressing each were mixed before lysis; Ni-NTA, then glutathione resin, GST removed with HRV 3C, HiTrap Q, Superdex 200 Increase; mutants purified by the same method.

Test [2] has as its target T2, DSR2 T248A (Bacillus subtilis) (UniProt P0DXN8).
T2 sequence: T1 sequence with A133N, T248A
Described as above.

B1: tail tube protein of phage SPR, wild type (natural protein)
chain: MKTVIQDTADVYFKRKSDGKLVFTAEAQTASFSQAISEEKLRGGIGNKPLYILKSEKEINLTVKNAFFDLEWLAMTQGETIQEETKVKVFDREHGLIVDDTNKVTLKGKPVSDVTFYNKKGLTYKIAVSTDGTYTIPTAFAAAKDKLTAVYQIEKVGRRLAIKASKFSERYEVEYRTIAYNPDTEEVYSDIYIQFPNVSPSGEFEMSLENGNALAPEIKFEALADTDTDEMAVVIEASRDENTAAPVEDTTGSTQSSDLGGTTE
notes: tail tube protein of Bacillus phage SPR; domains D1 and D2; GST removal with HRV 3C is told for the DSR2-tube complex; Alone it runs as monomeric and oligomeric species on SEC; Only D1 is seen in the maps; also called phage tail tube protein; source: E. coli BL21 Star (DE3); purified alone, or co-purified with DSR2 (Ni-NTA, glutathione resin, HRV 3C cleavage, HiTrap Q, Superdex 200); not shown: …
Regarding B1, the binding entry in test [1] and in test [2] was “binds” each time.
